Assay results from publication doi:10.1101/2024.12.04.625365.
No constants are given. Whether binding was seen depends on the method and setting. Some entries that bind do so weakly or less than the wild type.

Protein sequences, listed by entry. Tags and fused reporters are not part of them. Lines headed by an entry give the natural chain unless they say otherwise; changes in a name come on top. Residues count along the entry.
UniProt P55087, residues 23-323: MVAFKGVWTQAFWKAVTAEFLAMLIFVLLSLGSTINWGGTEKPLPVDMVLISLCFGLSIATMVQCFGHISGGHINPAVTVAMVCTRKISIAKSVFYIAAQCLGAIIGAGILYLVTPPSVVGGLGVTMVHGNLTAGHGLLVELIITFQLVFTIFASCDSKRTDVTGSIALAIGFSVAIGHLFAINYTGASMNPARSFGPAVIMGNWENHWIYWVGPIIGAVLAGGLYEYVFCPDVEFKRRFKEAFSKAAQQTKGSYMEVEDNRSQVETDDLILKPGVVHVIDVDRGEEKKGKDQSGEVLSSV

Target: human AQP4-M23-GFP (human) (UniProt P55087)
Experiment: native gel or EMSA

“human AQP4-M23-GFP (from UniProt P55087-2 1-301)” was tested, and the binding was “binds”.
